No constants are given. Whether binding was seen depends on the method and setting. Some binding calls cover weakened binding; strength is not graded here.
Molecular target: Snf2H (UniProt O60264)
Test: co-purification (Ni-NTA affinity chromatography); Snf2H (N-terminal His tag) and Tip5 co-expressed in SF21 cells with baculovirus; complex purified via Ni-NTA by the His tag of Snf2H; analysed by SDS-PAGE and Coomassie staining

Amino acid sequences for entries named in this document (tags omitted).
UniProt O60264: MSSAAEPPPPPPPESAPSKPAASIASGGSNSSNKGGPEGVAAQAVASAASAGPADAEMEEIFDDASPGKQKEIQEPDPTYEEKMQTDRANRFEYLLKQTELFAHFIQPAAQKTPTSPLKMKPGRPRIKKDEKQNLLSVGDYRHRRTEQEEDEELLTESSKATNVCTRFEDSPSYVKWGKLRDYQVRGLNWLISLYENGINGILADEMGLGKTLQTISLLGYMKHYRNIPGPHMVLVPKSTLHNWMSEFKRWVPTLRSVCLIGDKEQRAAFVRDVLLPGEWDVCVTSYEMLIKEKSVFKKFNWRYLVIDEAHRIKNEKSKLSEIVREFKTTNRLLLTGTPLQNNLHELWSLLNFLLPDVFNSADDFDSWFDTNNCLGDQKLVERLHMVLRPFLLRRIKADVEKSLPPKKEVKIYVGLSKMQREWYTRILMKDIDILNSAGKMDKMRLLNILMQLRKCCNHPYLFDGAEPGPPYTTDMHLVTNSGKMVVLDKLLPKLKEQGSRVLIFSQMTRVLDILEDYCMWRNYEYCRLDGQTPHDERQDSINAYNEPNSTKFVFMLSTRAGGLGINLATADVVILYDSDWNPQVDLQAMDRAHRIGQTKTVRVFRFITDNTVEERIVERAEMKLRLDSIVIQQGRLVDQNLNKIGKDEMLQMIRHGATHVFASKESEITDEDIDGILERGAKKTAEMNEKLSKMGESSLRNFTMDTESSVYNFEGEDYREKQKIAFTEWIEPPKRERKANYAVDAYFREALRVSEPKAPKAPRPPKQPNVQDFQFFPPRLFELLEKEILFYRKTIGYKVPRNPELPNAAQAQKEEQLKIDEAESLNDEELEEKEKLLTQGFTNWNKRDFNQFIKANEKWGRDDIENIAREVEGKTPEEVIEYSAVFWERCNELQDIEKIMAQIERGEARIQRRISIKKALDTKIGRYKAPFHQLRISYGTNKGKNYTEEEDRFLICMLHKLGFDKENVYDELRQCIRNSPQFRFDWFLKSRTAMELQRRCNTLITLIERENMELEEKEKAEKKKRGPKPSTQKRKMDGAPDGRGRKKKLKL
UniProt Q91YE5: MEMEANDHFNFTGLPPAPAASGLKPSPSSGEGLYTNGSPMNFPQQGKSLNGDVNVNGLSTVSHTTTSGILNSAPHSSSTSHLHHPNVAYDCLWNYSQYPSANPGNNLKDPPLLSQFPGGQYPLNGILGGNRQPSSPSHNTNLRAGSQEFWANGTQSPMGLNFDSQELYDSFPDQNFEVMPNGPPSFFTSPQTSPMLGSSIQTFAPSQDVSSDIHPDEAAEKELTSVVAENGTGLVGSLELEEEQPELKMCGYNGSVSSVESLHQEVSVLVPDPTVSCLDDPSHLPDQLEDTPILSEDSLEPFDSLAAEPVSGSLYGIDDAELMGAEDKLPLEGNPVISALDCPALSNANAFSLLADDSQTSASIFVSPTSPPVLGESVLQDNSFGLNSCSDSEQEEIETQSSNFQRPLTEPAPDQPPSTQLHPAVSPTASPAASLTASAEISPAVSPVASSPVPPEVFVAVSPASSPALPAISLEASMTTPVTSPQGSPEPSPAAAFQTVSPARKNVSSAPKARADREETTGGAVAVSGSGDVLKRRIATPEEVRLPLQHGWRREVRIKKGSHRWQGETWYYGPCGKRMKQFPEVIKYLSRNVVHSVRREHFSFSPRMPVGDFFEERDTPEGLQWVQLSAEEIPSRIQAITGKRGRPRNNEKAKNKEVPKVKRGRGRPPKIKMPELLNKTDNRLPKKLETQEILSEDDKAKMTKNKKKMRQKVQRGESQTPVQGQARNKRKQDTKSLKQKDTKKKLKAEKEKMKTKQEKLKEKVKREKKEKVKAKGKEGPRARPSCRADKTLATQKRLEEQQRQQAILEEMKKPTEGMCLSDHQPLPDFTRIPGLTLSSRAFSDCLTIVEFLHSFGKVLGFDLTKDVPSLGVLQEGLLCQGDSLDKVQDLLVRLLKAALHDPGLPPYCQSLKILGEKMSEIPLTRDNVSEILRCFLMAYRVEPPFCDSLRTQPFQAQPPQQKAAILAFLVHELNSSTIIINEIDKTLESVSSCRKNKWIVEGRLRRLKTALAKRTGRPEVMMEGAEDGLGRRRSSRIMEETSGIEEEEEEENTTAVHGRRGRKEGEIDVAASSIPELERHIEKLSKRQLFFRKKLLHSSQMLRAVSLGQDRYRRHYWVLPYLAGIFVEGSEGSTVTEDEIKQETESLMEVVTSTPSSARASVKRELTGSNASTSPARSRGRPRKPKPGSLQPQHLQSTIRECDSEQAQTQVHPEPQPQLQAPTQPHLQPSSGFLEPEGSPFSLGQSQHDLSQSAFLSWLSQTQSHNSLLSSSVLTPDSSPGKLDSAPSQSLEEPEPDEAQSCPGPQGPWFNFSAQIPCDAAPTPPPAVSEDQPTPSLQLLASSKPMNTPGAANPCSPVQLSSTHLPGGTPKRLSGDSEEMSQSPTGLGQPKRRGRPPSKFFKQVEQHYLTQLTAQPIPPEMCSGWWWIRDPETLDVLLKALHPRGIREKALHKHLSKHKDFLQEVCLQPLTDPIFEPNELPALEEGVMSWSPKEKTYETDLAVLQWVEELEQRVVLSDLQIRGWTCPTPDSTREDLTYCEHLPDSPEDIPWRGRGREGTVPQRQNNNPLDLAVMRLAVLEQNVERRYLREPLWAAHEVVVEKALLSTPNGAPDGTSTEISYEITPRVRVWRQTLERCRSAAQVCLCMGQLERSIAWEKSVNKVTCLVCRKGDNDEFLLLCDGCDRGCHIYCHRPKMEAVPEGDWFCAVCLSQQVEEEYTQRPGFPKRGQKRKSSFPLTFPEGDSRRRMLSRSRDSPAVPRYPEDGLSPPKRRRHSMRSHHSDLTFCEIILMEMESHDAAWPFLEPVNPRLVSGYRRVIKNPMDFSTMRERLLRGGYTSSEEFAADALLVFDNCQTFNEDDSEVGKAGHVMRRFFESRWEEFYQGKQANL

Substance: Tip5 (TTFI interacting protein 5) (from UniProt Q91YE5 1-1889)
- binding: binds

— paper PMC3961174
